# In the supplement of paper PMC8728848:
# The other results are listed elsewhere or left out.
# B1: SJCP3842 (Schistosoma japonicum) (protein)
# chain: MFKMRIINLVNISTVLLLINLLQTKSRLVGKENGFMLTVSIYGAQLSDKMTSVPVSWTIDYEDPEKSAFKKLVTDSCDTFSEYVKSQIPKGSVDGQCTSHIFQRPGSGSGVSISLTLSFIYVDVTQPDTVALKTELEKHFANFVTIHSHKITQAQFRINQKAIVIPTGDKDAIDGSKWKIIAIIALVALAIVVIGGFIYICVK
# Tests used:
# [1] = target: Neu5Gc(a2-8)Neu5Gc(a2-6)Gal(b1-4)GlcNAc; test: glycan array binding signal (z-score within array); higher = stronger binding; settings: glycan notation: IUPAC condensed, linker removed
# Method in brief: (§1)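 The Consortium for Functional Glycomics database supplied 3228 glycan arrays, of which those lacking an available protein sequence were dropped. The binding signal, a within-array Z-score, was averaged across arrays of the same protein sequence and across linkers. Negative scores can be read as non-binding.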
# [2] = target: Neu5Gc(b2-6)Gal(b1-4)GlcNAc; test: as above; settings: glycan notation: IUPAC condensed, linker removed
# Method in brief: as §1
binder,measurement,setting,value
B1,glycan array binding signal (z-score),[1],-0.404
same,glycan array binding signal (z-score),[2],1.09
